Values from PubChem BioAssay AID602196 (INSERM, 2012).

Aim: 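Knock-downs that protect lung cancer cells from cisplatin or sensitise them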
Cell system: human A549 lung cancer cells
Reagents: siRNA pair against human genes
Duration: 48 h transfection before cisplatin; time from cisplatin to read-out not stated
Challenge: cisplatin at a dose killing half of control-siRNA cells; exact dose and duration not given
Measurement: 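Shift in cisplatin death relative to control siRNA, from -50 (all cells die) to +50 (no cells die); siRNAs harmful on their own scored 0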
Direction: two-siRNA summed score (-2 to +2): higher = both siRNAs protect from cisplatin killing; -2 means both sensitise
Rule for the call: 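Each siRNA scores 0 if harmful alone by LDH or WST-1, otherwise +1 if it reduces and -1 if it increases cisplatin killing; a gene is active when both siRNAs agree (sum +2 or -2)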
Meaning of the calls: active = both siRNAs shift cisplatin killing the same way; inactive = no consistent shift, or siRNA harmful alone
Here is a random part of about 23,000 reagents tested. Of all reagents, 455 (2%) are marked active. 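Active includes both protection and sensitisation; some change values fall well beyond the stated -50 to +50 range.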 Not all columns of the deposit are shown. Not given: the amount of reagent.

target gene | two-siRNA summed score (-2 to +2) | Call
OR4L1 | 0 | inactive
BMF | 0 | inactive
PARG | 0 | inactive
COL6A1 | 0 | inactive
HJURP | -1 | inactive
SYT2 | 0 | inactive
INPP1 | 0 | inactive
SKP1 | -1 | inactive
PDP2 | 0 | inactive
FSTL5 | 0 | inactive
HOMER3 | 1 | inactive
POLR1B | 0 | inactive
LOC402669 | 0 | inactive
PCDHGA2 | 1 | inactive
LOC442403 | 0 | inactive
FADS1 | 1 | inactive
IFNA14 | 0 | inactive
LDAF1 | 0 | inactive
LOC442429 | 0 | inactive
CSF3 | 0 | inactive
KIF7 | 0 | inactive
PECAM1 | -1 | inactive
OGDH | 0 | inactive
ZNF771 | 0 | inactive
RNGTT | 1 | inactive
G3BP1 | -1 | inactive
LOC440728 | 1 | inactive
SUMO4 | 0 | inactive
TMEM106A | 0 | inactive
ELOC | 0 | inactive
EEF1AKMT1 | 0 | inactive
FLJ13072 | 1 | inactive
RLIM | 0 | inactive
BIRC7 | 0 | inactive
LOC387871 | 1 | inactive
ADAMTS18 | 0 | inactive

Taken from above.
For “two-siRNA summed score (-2 to +2)”, COL6A1 shows 0
For “two-siRNA summed score (-2 to +2)”, LOC442403 shows 0
Entry of LDAF1 under “two-siRNA summed score (-2 to +2)”: 0
Result for SUMO4 in “two-siRNA summed score (-2 to +2)”: 0
Entry for ADAMTS18 in “two-siRNA summed score (-2 to +2)”: 0

The list goes on:
target gene | two-siRNA summed score (-2 to +2) | Call
COX7B | 0 | inactive
BUB1 | 0 | inactive
ATG4A | 0 | inactive
PAIP2 | 0 | inactive
GPR31 | 0 | inactive
LOC392486 | 0 | inactive
LCA5L | 1 | inactive
ATP5PDP3 | 0 | inactive
MIR22HG | 0 | inactive
PLD5 | 0 | inactive
TLN2-AS2 | 0 | inactive
CNDP1 | 0 | inactive
ASIC2-AS1 | 0 | inactive
BRINP3 | -1 | inactive
LOC441560 | 0 | inactive
CYP11B1 | 0 | inactive
RP11-19J3.3 | 0 | inactive
SRRT | 0 | inactive
OR5J2 | 0 | inactive
GTPBP2 | 0 | inactive
ZNF274 | 0 | inactive
